Results reported in PMC10449786.
No constants are given. Whether binding was seen depends on the method and setting. Binding calls can cover weak binding; strength is not graded here. For some of these results: In cells and extracts the contact can be indirect. One block for each molecule: values may come before it.

Tests used:
[1] = target: T1, mouse serum amyloid A3 (SAA3) (mouse (endogenous in lung tissue)) (UniProt P04918); assay: co-IP; anti-SAA3 antibody immunoprecipitation of lung lysate from tumor-bearing (LLC) mice; lysis buffer 50 mM Hepes pH 7.4, 0.5% Triton X-100, 0.5% sodium cholate, 150 mM NaCl; western blot with anti-Fbg and anti-citrulline
T1 sequence: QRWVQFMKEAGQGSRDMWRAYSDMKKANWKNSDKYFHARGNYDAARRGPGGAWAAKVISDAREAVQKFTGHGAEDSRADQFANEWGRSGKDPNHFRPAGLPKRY

[2] = target: human fibrinogen (hFbg) (human); assay: SEC; Superdex 200 Increase 10/300 GL, 50 mM Hepes pH 7.7, 150 mM NaCl; hSAA1, hFbg, hCitFbg alone and mixed; Fbg peak fraction (fraction 4) analysed by western blot; both purified
[3] = target: human fibrinogen (hFbg) (human); assay: ELISA; Fbg or citrullinated Fbg coated (0.8 μg/mL in PBS, overnight 4 °C); recombinant SAA 10–2000 ng/mL added, 1 h at 37 °C; detected with anti-hSAA1; apparent Kd; both purified
[4] = target: human fibrinogen (hFbg) (human); assay: dynamic light scattering; 50 mM Hepes pH 7.7, 150 mM NaCl, 1 mg/mL; proteins mixed immediately before measurement; hFbg and hCitFbg with and without hSAA1; both purified

binding [1]: binds
Molecule: mouse fibrinogen (complex)

binding [2]: binds | binding [3]: binds | binding [4]: binds
B1: recombinant human serum amyloid A1 (hSAA1) (protein, UniProt P0DJI8 19-122)
chain: RSFFSFLGEAFDGARDMWRAYSDMREANYIGSDKYFHARGNYDAAKRGPGGAWAAEVITDARENIQRFFGHGAEDSLADQAANEWGRSGKDPNHFRPAGLPEKY
